{
  "source": "patent US20090111868A1",
  "about": "(priority 2004, published 2009)",
  "origin": "cited, not measured here",
  "test_system": "arterial smooth muscle Ca^2+ sparks",
  "settings": "cited from earlier work",
  "note": "At least one structure is not confirmed: it was looked up by name or label, or the drawing left a doubt.",
  "data": [
    {"smiles": "C=C[C@@]1(C)CC(=O)[C@]2(O)[C@@]3(C)[C@@H](O)CCC(C)(C)[C@@H]3[C@H](O)[C@H](OC(C)=O)[C@@]2(C)O1", "note": "[forskolin]", "values": [
      {"measurement": "effect on Ca2+ spark frequency", "setting": "arterial smooth muscle from phospholamban null mice", "value": "little effect"},
      {"measurement": "increase in Ca2+ spark frequency", "setting": "wild type animals", "value": "~2", "unit": "fold"}
    ]}
  ]
}
